The source of these data is article PMC7862700.

Amino acid sequences for entries named in this document (tags omitted). A change or cut given only in a name is not applied to a line headed by its entry.
UniProt O43186: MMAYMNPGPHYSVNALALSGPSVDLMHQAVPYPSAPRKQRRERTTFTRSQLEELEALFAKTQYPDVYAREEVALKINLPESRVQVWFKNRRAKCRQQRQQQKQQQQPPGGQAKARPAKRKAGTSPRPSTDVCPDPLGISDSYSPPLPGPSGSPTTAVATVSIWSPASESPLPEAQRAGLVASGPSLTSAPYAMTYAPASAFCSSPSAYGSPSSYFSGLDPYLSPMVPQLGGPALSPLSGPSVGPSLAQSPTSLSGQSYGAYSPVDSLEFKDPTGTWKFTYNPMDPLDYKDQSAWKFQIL

The entries are a selection whose mix differs from that of the whole data set. At the low end of the ranking, values are background and their order means little.

The first assay addresses T1, FEV (UniProt Q99581).
T1 sequence: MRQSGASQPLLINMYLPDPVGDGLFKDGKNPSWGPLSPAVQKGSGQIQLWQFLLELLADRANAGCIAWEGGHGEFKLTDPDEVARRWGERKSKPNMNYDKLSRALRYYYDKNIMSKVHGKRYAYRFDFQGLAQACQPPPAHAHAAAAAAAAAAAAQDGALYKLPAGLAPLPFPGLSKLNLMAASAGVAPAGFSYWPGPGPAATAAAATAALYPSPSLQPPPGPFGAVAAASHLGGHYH
Briefly: DAPPL (digital affinity profiling via proximity ligation, sequencing). The settings on record: 10 mM Tris-HCl pH 7.5, 50 mM NaCl, 1 mM DTT, 4% glycerol, room temperature, 30 min; GST-TFs on glutathione beads, 16-mer random dsDNA library, 0.1% …; high values mean tight binding; double strand, one strand shown; scale: fold enrichment (6-mer frequency, TF over GST control).
CGTTTG displayed a binding signal of 0.982.
CCTCGC showed a binding signal of 1.37.
On the same count and under the same terms, for GCGTTA the value was 0.871.
Still for that read-out and setting: for TGCGTT the value was 1; for TGCGAC, 1.24.
On the same count and under the same terms, with CAAATG the figure was 1.11; with GTAGCG, 0.952.
AACGGA came in with a binding signal of 1.35.
The same measure, in the same setting: for TCCGCC the value was 1.88.
Still for that read-out and setting: for CCCGTC the value was 1.09; for CTGGCT, 1.16; for TCGAGT, 0.906.
The same measure, in the same setting: with GTGATG the figure was 0.932; with TGGGCG, 0.796; with TGGTGA, 0.922.
Sequence TGCGTC had a binding signal of 0.943.
Same read-out and setting: for GCTAAG the value was 0.945; for ATTCGG, 0.901; for TCGTCA, 0.961.
The same measure, in the same setting: for CCCTGT the value was 1.04.
In turn, CAGCAC showed a binding signal of 0.953.
Consider CGGAAG, for which the binding signal was 3.68.
The sequence AGTTTT displayed a binding signal of 0.929.
The same measure, in the same setting: for ACGGCA the value was 0.977.
Same read-out and setting: with GCAGGT the figure was 0.821; with GACCCA, 0.875; with ACGGTT, 0.975.
Still for that read-out and setting: for TGGGAA the value was 0.95; for TCGAGG, 0.742; for ACTGCA, 1.18.
With TGTTGG, the binding signal amounted to 0.906.
On the same count and under the same terms, for TGGCAT the value was 1.3; for GTACTG, 0.995; for GACATG, 0.892.
Same read-out and setting: with AGGTAA the figure was 0.939; with ATGAGG, 0.842; with CTAGGA, 0.812.
The same measure, in the same setting: for TATGAC the value was 1.25; for CCAAGA, 0.919.

The next assay addresses CRX (UniProt O43186). The description is as above. The note with it: 10 mM Tris-HCl pH 7.5, 50 mM NaCl, 1 mM DTT, 4% glycerol, room temperature, 30 min; GST-TFs on glutathione beads, 16-mer random dsDNA library, 0.1% …; high values mean tight binding; double strand, one strand shown; scale: fold enrichment (6-mer frequency, TF over GST control).
CGTTTG registered a binding signal of 0.794.
As to CCTCGC, the binding signal worked out at 1.16.
Still for that read-out and setting: for GCGTTA the value was 1.06.
Same read-out and setting: for TGCGTT the value was 0.916; for TGCGAC, 0.891.
Same read-out and setting: with CAAATG the figure was 0.98; with GTAGCG, 0.651; with AACGGA, 0.788.
For TCCGCC, the binding signal is 1.05.
Still for that read-out and setting: for CCCGTC the value was 0.849; for CTGGCT, 1.21.
Still for that read-out and setting: with TCGAGT the figure was 0.928; with GTGATG, 0.688; with TGGGCG, 0.661.
In the case of TGGTGA, the binding signal was found to be 0.857.
On the same count and under the same terms, with TGCGTC the figure was 0.695; with GCTAAG, 1.75; with ATTCGG, 0.989.
On to TCGTCA, for which the binding signal is 0.845.
On the same count and under the same terms, for CCCTGT the value was 0.886; for CAGCAC, 0.757; for CGGAAG, 0.478.
On the same count and under the same terms, for AGTTTT the value was 0.907.
Still for that read-out and setting: with ACGGCA the figure was 0.798; with GCAGGT, 0.667; with GACCCA, 0.694.
As to ACGGTT, the binding signal turned out to be 0.888.
Still for that read-out and setting: with TGGGAA the figure was 0.887; with TCGAGG, 0.745.
Still for that read-out and setting: for ACTGCA the value was 0.836.
Same read-out and setting: for TGTTGG the value was 0.746; for TGGCAT, 1.21; for GTACTG, 0.829.
As to GACATG, the binding signal was determined as 0.683.
The sequence AGGTAA showed a binding signal of 1.14.
The same measure, in the same setting: for ATGAGG the value was 0.81.
Still for that read-out and setting: with CTAGGA the figure was 0.936.
Sequence TATGAC came in with a binding signal of 1.23.
The same measure, in the same setting: for CCAAGA the value was 0.943.

For the next assay, the target named is T2, ELF5 (UniProt Q9UKW6-2).
T2 sequence: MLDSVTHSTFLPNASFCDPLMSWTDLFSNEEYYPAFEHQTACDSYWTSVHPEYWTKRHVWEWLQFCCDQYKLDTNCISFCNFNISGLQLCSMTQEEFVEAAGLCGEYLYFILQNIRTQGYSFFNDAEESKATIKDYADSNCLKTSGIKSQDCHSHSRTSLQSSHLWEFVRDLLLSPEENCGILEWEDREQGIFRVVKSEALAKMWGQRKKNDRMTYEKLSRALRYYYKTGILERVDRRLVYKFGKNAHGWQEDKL
Described as above. The settings on record: 10 mM Tris-HCl pH 7.5, 50 mM NaCl, 1 mM DTT, 4% glycerol, room temperature, 30 min; GST-TFs on glutathione beads, 16-mer random dsDNA library, 0.1% …; high values mean tight binding; double strand, one strand shown; scale: fold enrichment (6-mer frequency, TF over GST control).
Regarding GCGTTA, the binding signal worked out at 0.877.
TGCGTT displayed a binding signal of 0.964.
The same measure, in the same setting: with GTAGCG the figure was 0.847; with AACGGA, 1.11; with TCGAGT, 0.868.
Sequence GTGATG returned a binding signal of 0.94.
The same measure, in the same setting: for TGGGCG the value was 0.904; for TGGTGA, 0.921; for TGCGTC, 0.958.
The same measure, in the same setting: for ATTCGG the value was 0.854; for TCGTCA, 0.969.
Still for that read-out and setting: for CAGCAC the value was 0.869.
With GCAGGT, the binding signal came to 0.818.
In the case of GACCCA, the binding signal came to 0.859.
The same measure, in the same setting: for ACGGTT the value was 1.05; for TCGAGG, 0.802; for TGTTGG, 0.945.
The same measure, in the same setting: with TGGCAT the figure was 1.06; with GTACTG, 0.986.
On the same count and under the same terms, with GACATG the figure was 0.96.
On to CTAGGA, for which the binding signal was found to be 0.937.
On the same count and under the same terms, with CCAAGA the figure was 0.916.
